According to the supplement of paper PMC12823440, “Inhibitors supercharge kinase turnover through native proteolytic circuits” (Nature, 2025):
Counter-ions that a name gives are not always drawn. This is one part of the list. The calls rarely recur for the same compound in another form.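 Kinases, fused to nanoluciferase, were expressed in K562 cells; luminescence was measured every 4 h from 2 to 18 h as percent of control (DMSO = 100%, positive control = 0%). A time point is decreased if signal falls significantly (2 sigma). Hits were called by the authors by a rule that is not shown; the count of time points alone does not decide it.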

Amino acid sequences for entries named in this document (tags omitted). A change or cut given only in a name is not applied to a line headed by its entry.
UniProt P48729: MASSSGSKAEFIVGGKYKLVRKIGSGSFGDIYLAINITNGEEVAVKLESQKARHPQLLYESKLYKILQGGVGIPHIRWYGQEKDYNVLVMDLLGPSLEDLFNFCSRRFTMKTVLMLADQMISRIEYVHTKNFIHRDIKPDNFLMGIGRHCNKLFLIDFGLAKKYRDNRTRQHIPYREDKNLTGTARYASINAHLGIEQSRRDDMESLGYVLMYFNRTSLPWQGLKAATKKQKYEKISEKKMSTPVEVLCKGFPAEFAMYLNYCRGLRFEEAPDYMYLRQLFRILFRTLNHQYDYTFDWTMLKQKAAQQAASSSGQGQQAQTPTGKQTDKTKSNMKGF
UniProt P48730: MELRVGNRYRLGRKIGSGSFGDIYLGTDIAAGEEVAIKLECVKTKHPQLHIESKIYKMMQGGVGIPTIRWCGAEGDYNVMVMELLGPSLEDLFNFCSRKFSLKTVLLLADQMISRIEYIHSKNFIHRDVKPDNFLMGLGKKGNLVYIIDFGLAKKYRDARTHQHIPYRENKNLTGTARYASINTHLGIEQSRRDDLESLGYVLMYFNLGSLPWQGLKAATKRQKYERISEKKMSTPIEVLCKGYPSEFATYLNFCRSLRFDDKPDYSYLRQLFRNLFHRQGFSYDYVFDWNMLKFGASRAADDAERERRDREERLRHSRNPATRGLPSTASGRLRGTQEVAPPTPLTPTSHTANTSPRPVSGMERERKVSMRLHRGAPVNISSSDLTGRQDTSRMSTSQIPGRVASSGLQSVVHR

target: CSNK1A1 (UniProt P48729); experiment: kinase-Nluc reporter destabilization hit call (1 = scored as downregulated) (binary); higher = compound decreases kinase abundance; details: 10 µM; K562; 2-18 h

kinase-Nluc reporter destabilization hit call, inactive:
COc1cc2nccc(Oc3ccc(NC(=O)C4(C(=O)Nc5ccc(F)cc5)CC4)cc3)c2cc1OC [Cabozantinib (S-malate)] 0, CN(C)C(=N)NC(=N)N [Metformin (hydrochloride)] 0, COc1ccnc(C[S+]([O-])c2nc3cc(-n4cccc4)ccc3[nH]2)c1C (stereo unspecified) [Ilaprazole (sodium)] 0, C#Cc1cccc(Nc2ncnc3cc4c(cc23)OCCOCCOCCO4)c1 [Icotinib (Hydrochloride)] 0, CC(C)NC[C@@H](C(=O)N1CCN(c2ncnc3c2[C@H](C)C[C@H]3O)CC1)c1ccc(Cl)cc1 [Ipatasertib] 0, C#Cc1cccc(Nc2ncnc3cc(OCCOC)c(OCCOC)cc23)c1 [Erlotinib] 0, OCCn1cc(-c2cnc3nnn(Cc4ccc5ncccc5c4)c3n2)cn1 0, CCN(CC)CC(=O)Nc1c(C)cccc1C [Lidocaine] 0, CCS(=O)(=O)N1CCN(c2ccc(Nc3ncc(C(N)=O)c(NC4CC4)n3)cc2)CC1 [Cerdulatinib] 0, C#Cc1cccc(Nc2ncnc3cc(OCCOC)c(OCCOC)cc23)c1 [Erlotinib (Hydrochloride)] 0, O=C(c1ccc(F)c(F)c1Nc1ccc(I)cc1F)N1CC(O)([C@@H]2CCCCN2)C1 [Cobimetinib] 0, CC(C)(C)n1nc(-c2cccc3ccccc23)c2c(N)ncnc21 [1-Naphthyl PP1 (hydrochloride)] 0

target: CSNK1D (UniProt P48730); experiment: as above; details: 2 µM; K562; 2-18 h

kinase-Nluc reporter destabilization hit call, inactive:
CCc1nc(C(N)=O)c(Nc2ccc(N3CCC(N4CCN(C)CC4)CC3)c(OC)c2)nc1NC1CCOCC1 [Gilteritinib] 0, CCc1nc(C(N)=O)c(Nc2ccc(N3CCC(N4CCN(C)CC4)CC3)c(OC)c2)nc1NC1CCOCC1 [Gilteritinib hemifumarate] 0, Cc1[nH]c(/C=C2\C(=O)Nc3ccc(F)cc32)c(C)c1C(=O)NCCN1CCCC1 [Toceranib (phosphate)] 0, Cc1[nH]c(/C=C2\C(=O)Nc3ccc(F)cc32)c(C)c1C(=O)NCCN1CCCC1 [Toceranib] 0
